No constants are given. Whether binding was seen depends on the method and setting. Binding seen in cells or lysates may run through a third protein. Some binding calls cover weakened binding; strength is not graded here.
Legend:
[1] = target: T1, PRDX1 (human (endogenous in HCT116 and DLD1)) (UniProt Q06830); experiment: co-IP; HCT116 and DLD1 lysates (mild RIPA lysis buffer) precipitated with anti-PRDX1 or IgG control antibody overnight, then Protein A + G Agarose at 4 °C for 4 h; endogenous proteins detected by Western blot
T1 sequence: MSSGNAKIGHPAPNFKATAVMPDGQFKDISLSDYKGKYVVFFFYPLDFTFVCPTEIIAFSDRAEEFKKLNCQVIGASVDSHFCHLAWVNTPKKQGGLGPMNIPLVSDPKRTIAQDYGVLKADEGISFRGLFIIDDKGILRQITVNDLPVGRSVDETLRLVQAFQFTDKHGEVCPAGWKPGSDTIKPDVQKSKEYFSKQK

Chains of the proteins cited; added tags and fusions are not shown.
UniProt Q93034: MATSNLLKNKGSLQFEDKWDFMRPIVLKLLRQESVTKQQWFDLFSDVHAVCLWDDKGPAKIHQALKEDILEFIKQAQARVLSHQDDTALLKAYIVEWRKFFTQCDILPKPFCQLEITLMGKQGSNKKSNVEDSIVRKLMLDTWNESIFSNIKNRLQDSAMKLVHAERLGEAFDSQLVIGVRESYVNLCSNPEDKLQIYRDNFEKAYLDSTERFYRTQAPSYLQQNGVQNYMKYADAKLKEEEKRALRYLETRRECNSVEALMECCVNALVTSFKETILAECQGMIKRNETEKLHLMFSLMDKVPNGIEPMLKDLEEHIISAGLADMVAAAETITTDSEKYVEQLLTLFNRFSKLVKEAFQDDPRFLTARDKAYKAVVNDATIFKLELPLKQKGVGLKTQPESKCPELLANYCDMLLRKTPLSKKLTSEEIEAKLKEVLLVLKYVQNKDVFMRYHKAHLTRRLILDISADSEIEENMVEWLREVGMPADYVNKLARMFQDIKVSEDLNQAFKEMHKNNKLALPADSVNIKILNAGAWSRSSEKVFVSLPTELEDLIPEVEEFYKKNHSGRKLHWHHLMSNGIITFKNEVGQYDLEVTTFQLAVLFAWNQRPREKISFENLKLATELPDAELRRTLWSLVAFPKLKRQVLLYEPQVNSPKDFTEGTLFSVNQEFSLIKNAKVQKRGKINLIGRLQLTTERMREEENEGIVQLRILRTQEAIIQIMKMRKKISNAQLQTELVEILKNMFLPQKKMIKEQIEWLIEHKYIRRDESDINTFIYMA

[2] = target: cullin-5 (human (endogenous in HCT116 and DLD1)) (UniProt Q93034); experiment: co-IP; lysates of HCT116 cells transfected with sh-PRDX1 or control, precipitated with anti-UBE2F or anti-CUL5 antibody, then Protein A + G Agarose; Western blot

binding [1]: binds
binding [2]: binds
B1: Nedd8-conjugating enzyme UBE2F (enzyme, UniProt Q969M7 1-185)
chain: MLTLASKLKRDDGLKGSRTAATASDSTRRVSVRDKLLVKEVAELEANLPCTCKVHFPDPNKLHCFQLTVTPDEGYYQGGKFQFETEVPDAYNMVPPKVKCLTKIWHPNITETGEICLSLLREHSIDGTGWAPTRTLKDVVWGLNSLFTDLLNFDDPLNIEAAEHHLRDKEDFRNKVDDYIKRYAR

Reference: publication PMC7954848
